SMILES strings stand for the structures. The list shows a part of the results. Further columns of the screen follow, without active or inactive calls. Compounds called inactive in the main read-out are mostly missing here. Words in brackets tell the shape of the fitted curve; partial curves, single points and poor fits give uncertain potencies.

This test can be described thus: qHTS Assay to Find Inhibitors of Chronic Active B-Cell Receptor Signaling. Particulars: ABC-DLBCL IkBa-CBG/CBR reporter, luminescence ratio (green luciferase fused to IkBa over red control in TMD8 lymphoma cells), 4 h; measured here: CBR red luminescence, cell number. An outline of the steps:
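TMD8 human ABC-DLBCL cells with doxycycline-inducible IκBα–green luciferase fusion and unfused red luciferase, in 0.5% FBS medium; compounds up to 46 uM, 4 h at 37C. Green/red luminescence ratio, filter-overlap corrected, fitted to concentration-response curves.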
Take `O=C1OCC/C1=C\c1ccc2c(c1)OCO2`: the AC50 is 7.08 µM [falling, partial curve, poor fit]. In the case of `O=C(Nc1cccc(C(=O)N2CCCCC2)c1)c1ccc(Cl)cc1`, the AC50 is 3.98 µM [falling, partial curve]. The same measure for `O=C(Nc1cccc2[nH]ncc12)c1ccc(F)cc1`: 14.1 µM [falling, partial curve]; for `O=C1C(Cc2ccc(Br)cc2)SC(=Nc2ccccc2)N1c1ccccc1` (configuration not stated): 2.59 µM [rising, partial curve, poor fit]; for `O=C(COc1ccc(S(=O)(=O)Nc2ccccc2)cc1)NCc1cccnc1`: 0.82 µM [rising, full curve, poor fit]. As for `CCOc1ccc(C2C(C(=O)c3cccs3)=C(O)C(=O)N2Cc2cccnc2)cc1OC` (configuration not stated), the figure is 35.5 µM [rising, single point]. As to `Cc1ccc(S(=O)(=O)N(CC(=O)NCc2ccco2)c2ccccc2C)cc1`, the AC50 is 12.6 µM [falling, single point]. As for `CCC(C(=O)O)n1nnc(-c2ccc(-c3ccc(OC)cc3)cc2)n1` (configuration not stated), the figure is 6.51 µM [rising, single point].

With `Cn1cccc1C(=O)Nc1nccs1`, the half-maximal activity concentration (AC50) was 12.6 µM [falling, partial curve]. `CCOc1ccc(C(C)=O)cc1Cn1nc(C(=O)O)c2ccccc2c1=O`: the AC50 is 3.55 µM [rising, full curve, poor fit].

In the case of `COC(=O)c1ccc(-c2cc3onc(-c4ccccc4)c3c(=O)n2C)cc1`, the AC50 was 2.91 µM [rising, full curve, poor fit]. As for `COc1ccc(C=C(C#N)C#N)c(CSc2ccccn2)c1`, the figure is 2.51 µM [rising, partial curve]; as for `COc1ccc(Cl)cc1NC(=O)CN(C)C(=O)C12CC3CC(CC(Cl)(C3)C1)C2`, 35.5 µM [falling, single point]; as for `O=C(/C=C/c1ccc(-c2ccccc2[N+](=O)[O-])o1)c1ccc(Br)cc1`, 29.1 µM [falling, single point]. Consider `COc1cc(C(=O)NC2CC(C)(C)NC(C)(C)C2)cc(OC)c1OC`, for which the AC50 is 35.5 µM [rising, partial curve, poor fit]. The same measure for `O=C(CNC(=O)c1ccc(-c2ccccc2)cc1)OCc1c(F)cccc1Cl`: 6.51 µM [rising, partial curve]; for `CC(C)c1cc(N2CCN(C(=O)c3ccco3)CC2)n2c(nc3ccccc32)c1C#N`: 29.1 µM [rising, single point]; for `COc1ccccc1NS(=O)(=O)c1ccc(S(=O)(=O)N2CCOCC2)cc1`: 5.01 µM [rising, single point].

Regarding `NCC1CC2c3ccccc3C1c1ccccc12` (configuration not stated), the AC50 is 22.4 µM [falling, single point]. As for `CC(/C=C/c1ccco1)=N/NC(=O)Cc1cccs1`, the figure is 6.31 µM [rising, single point]; as for `COc1ccc(N2CCN(c3nc4c(c(=O)[nH]c(=O)n4C)n3Cc3cccc(C)c3)CC2)cc1`, 6.51 µM [rising, single point]; as for `Cc1ccc(N(C(=O)Cc2cccs2)C2C=CS(=O)(=O)C2)cc1Cl` (configuration not stated), 11.2 µM [falling, partial curve]. As for `CC(C)CN(C(=O)CCNC(=O)c1ccc(Cl)cc1)C1CCS(=O)(=O)C1` (configuration not stated), the figure is 20.6 µM [rising, partial curve, poor fit]; as for `CCOc1cc(/C=C\c2[nH]c(=O)[nH]c(=O)c2[N+](=O)[O-])ccc1OC(C)CC` (configuration not stated), 0.366 µM [rising, full curve, poor fit]; as for `CCOC(=O)c1cnn(-c2ccccn2)c1N`, 22.4 µM [falling, single point].

Take `CC(NC(=O)c1ccc([N+](=O)[O-])o1)C12CC3CC(CC(C3)C1)C2` (configuration not stated): the AC50 is 31.6 µM [falling, single point]. As for `Cc1noc(C)c1CSc1nc2ccccc2c(=O)n1-c1ccc(Cl)cc1`, the figure is 7.31 µM [falling, partial curve]; as for `COc1cc2cc(C[C@H](C)O)oc(=O)c2cc1OC`, 18.4 µM [rising, single point]. Regarding `COc1ccc(Cc2nc(C(=O)Nc3ccc(F)cc3)cs2)cc1`, the half-maximal activity concentration (AC50) is 3.66 µM [falling, partial curve, poor fit]. Turning to `CCOC(=O)c1cc(-c2ccc(/C=C3/C(=O)N(c4ccc(C(=O)O)cc4)N=C3C)o2)ccc1Cl`, the half-maximal activity concentration (AC50) is 8.91 µM [falling, partial curve]. The same measure for `COc1ccccc1C(NC(C)=O)c1cc(Cl)c2cccnc2c1O` (configuration not stated): 35.5 µM [falling, single point]; for `O=C1CCN(CCc2ccccc2)CCN1CCSc1ccc(Br)cc1`: 15.8 µM [falling, partial curve, poor fit]; for `CCOC(=O)c1c(C)[nH]c(C=O)c1Cc1cccc(Cl)c1`: 18.4 µM [falling, single point]. As for `COc1ccc(C(=O)N2CCc3ccc(NC(=O)c4ccccn4)cc3C2)cc1F`, the figure is 35.5 µM [falling, single point]; as for `Clc1ccc(OCCSc2ncccn2)cc1`, 23.1 µM [rising, single point]; as for `N#Cc1nc(COc2cccc(Cl)c2)oc1NCc1ccco1`, 35.5 µM [falling, single point].

As to `O=C(c1ccc(Br)s1)N1CCc2ccccc2C1`, the AC50 was 0.562 µM [rising, partial curve, poor fit].

Regarding `Cc1ccc(NC(=O)c2ccc(CNS(=O)(=O)c3cccc(C(F)(F)F)c3)cc2)cc1`, the concentration at half-maximal activity (AC50) was 3.66 µM [rising, single point]. With `COc1ccc(OC)c(N/C=C2/CCCCC2=O)c1`, the concentration at half-maximal activity (AC50) was 8.2 µM [falling, partial curve, poor fit]. As for `C[C@H]1CN=C(Nc2ccccc2)N1CCC1CCCCC1`, the AC50 is 4.47 µM [falling, partial curve, poor fit]. The same measure for `COC(=O)c1ccc(CSc2nnc(-c3ccc4c(c3)OCO4)n2-c2ccccc2)o1`: 29.1 µM [falling, single point]; for `Cc1nc2ccc(C(=O)Nc3cccc([N+](=O)[O-])c3)cc2s1`: 2.51 µM [rising, full curve, poor fit].

One may read the AC50 as the midpoint of the concentration-response curve, whichever way the signal moves.
